Values of other authors as cited in patent US11168047B2, “Cocrystal of 2-[(1R,6R)-6-isopropenyl-3-methylcyclohex-2-en-1-yl]-5-pentylbenzene-l,3-diol” (ENANTIA, S.L., priority 2017, dated 2021).

Details: water; cited from earlier work

SMILES: C=C(C)[C@@H]1CCC(C)=C[C@H]1c1c(O)cc(CCCCC)cc1O [CBD, 2-[(1R,6R)-6-isopropenyl-3-methylcyclohex-2-en-1-yl]-5-pentylbenzene-1,3-diol]
- aqueous solubility: about 0.1 ug/mL
